Changes are numbered by the printed parent chain. Names and notes keep the numbering of the source. These are yes or no findings as the source states them, for the method shown. For part of these data: Tags and fused reporters may be left off the sequences shown.
T1: CM2-T1133E (Drosophila melanogaster) (UniProt P54623)
T1 sequence: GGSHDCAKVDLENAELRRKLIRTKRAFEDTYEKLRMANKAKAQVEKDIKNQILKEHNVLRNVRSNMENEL

T2: CM2-L1137E (Drosophila melanogaster) (UniProt P54623)
T2 sequence: T1 sequence with E55T, L59E

T3: CM2-I1126E (Drosophila melanogaster) (UniProt P54623)
T3 sequence: T1 sequence with I48E, E55T

B1: PReM-GFP (domain or fragment, UniProt P54623-2 403-608)
chain: MQLQTEVKKKTANLQNLVNKELWEKNREVERLTKLLANQQKTLPQISEESAGEADLQQSFTEAEYMRALERNKLLQRKVDVLFQRLADDQQNSAVIGQLRLELQQARTEVETADKWRLECVDVCSVLTNRLEELAGFLNSLLKHKDVLGVLAADRRNAMRKAVDRSLDLSKSLNMTLNITATSLADQSLAQLCNLSEILYTEGDASH
B2: Cnn LZ WT (GPM-D490-K544) (domain or fragment, Drosophila melanogaster)
chain: GPMDQQNSAVIGQLRLELQQARTEVETADKWRLECVDVCSVLTNRLEELAGFLNSLLK
notes: Centrosomin (Cnn), Drosophila, LZ domain, aa490-544; Homo-tetramer alone in solution; a parallel homo-dimer in the 2:2 complex with CM2; also called LZ domain; leucine zipper; source: E. coli B834 (DE3), purified (Ni-NTA, SEC; tag cleaved with GST-3C protease, reverse Ni-NTA, SEC); not shown: His6, N-terminal, cleaved; MBP, N-terminal, cleaved
B3: LZ-L528E (domain or fragment, UniProt P54623-2 490-544)
chain: B2 chain with L42E
B4: CM2-HCAA (domain or fragment, UniProt P54623-2 1082-1148)
chain: T1 sequence with H4A, C6A, E55T
B5: Cnn CM2 WT (GGS-H1082-L1148) (domain or fragment, Drosophila melanogaster)
chain: T1 sequence with E55T
notes: GGS motif left at the N terminus after TEV cleavage; Centrosomin (Cnn), Drosophila, CM2 domain, aa1082-1148; The dimer holds a Zn2+ ion coordinated by H1082 and C1084; also called Cnn-motif 2 domain; Cnn_(1082-1148); source: E. coli C41 (DE3), purified (Ni-NTA, TEV cleavage, SEC); not shown: His-tagged lipoyl domain (Bacillus stearothermophilus dihydrolipoamide acetyltransferase), N-terminal, …
B6: MBP-PReM (domain or fragment, Drosophila melanogaster, UniProt P54623-2 403-608, looked up)
chain: QLQTEVKKKTANLQNLVNKELWEKNREVERLTKLLANQQKTLPQISEESAGEADLQQSFTEAEYMRALERNKLLQRKVDVLFQRLADDQQNSAVIGQLRLELQQARTEVETADKWRLECVDVCSVLTNRLEELAGFLNSLLKHKDVLGVLAADRRNAMRKAVDRSLDLSKSLNMTLNITATSLADQSLAQLCNLSEILYTEGDASH
notes: Centrosomin (Cnn), Drosophila, phospho-regulated multimerization (PReM) domain, aa403-608; also called MBP-PReM fusion; Cnn-PReM (aa403-608); source: E. coli B834 (DE3), purified (Ni-NTA, SEC); not shown: MBP, N-terminal, kept

Assays:
[1] = molecular target: T1, CM2-T1133E (Drosophila melanogaster); test: fluorescence microscopy of assemblies of purified proteins; PReM-GFP mixed with CM2 or its mutants at equimolar 20 μM; 50 mM Tris-HCl pH7.5, 150 mM NaCl, 5 mM β-mercaptoethanol, room temperature; both purified
[2] = molecular target: T2, CM2-L1137E (Drosophila melanogaster); test: as above
[3] = molecular target: T3, CM2-I1126E (Drosophila melanogaster); test: as above
[4] = molecular target: T1, CM2-T1133E (Drosophila melanogaster); test: SEC-MALS; S75 10/300 column; 50 mM Tris-HCl pH7.5, 150 mM NaCl, 10 μM ZnCl2, 5 mM β-mercaptoethanol; proteins alone or mixed; both purified
[5] = molecular target: T2, CM2-L1137E (Drosophila melanogaster); test: as above
[6] = molecular target: T3, CM2-I1126E (Drosophila melanogaster); test: as above
[7] = molecular target: B5; test: as above
[8] = molecular target: CM2-HCAA (Drosophila melanogaster) (UniProt P54623); test: as above
[9] = molecular target: B5; test: SEC-MALS; WT CM2 in buffer with EDTA; both purified
[10] = molecular target: T1, CM2-T1133E (Drosophila melanogaster); test: SEC-MALS; Superose 6 column; MBP-PReM apo or with addition of CM2 WT or point mutants; 50 mM Tris-HCl pH7.5, 150 mM NaCl, 10 μM ZnCl2, 5 mM β-mercaptoethanol; both purified
[11] = molecular target: T2, CM2-L1137E (Drosophila melanogaster); test: as above
[12] = molecular target: T3, CM2-I1126E (Drosophila melanogaster); test: as above

Binder: B1
binding [1]: no binding (tested: 20 μM) | binding [2]: no binding (tested: 20 μM) | binding [3]: no binding (tested: 20 μM)

Binder: B2
binding [4]: no binding | binding [5]: no binding | binding [6]: no binding

Binder: B3
binding [7]: no binding

Binder: B4
binding [8]: no binding

Binder: B5
binding [9]: no binding (condition: with EDTA)

Binder: B6
binding [10]: no binding | binding [11]: no binding | binding [12]: no binding
